Measurements reported in PubChem BioAssay AID652248 (Drosophila RNAi Screening Center, 2013)

Screen: 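Kinases and phosphatases whose loss pushes fly blood cells toward elongated shapes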 (primary screen)
System: cultured Drosophila hemocytes
Knock-down reagent: long dsRNA against Drosophila genes
Read-out: 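Automated microscopy of stained actin, tubulin and nuclei; single-cell shape measures assigned to five reference shape types, giving a score per dsRNA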
Scale: elongated score: higher = more elongated bipolar cells
Rule for the call: 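a gene counts as active when its knock-down clearly increases the elongated score; a low similarity score was then used to rank the actives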
In all, the deposit lists 863 reagents; shown is a random part of them. Over the whole deposit, 32 (3.7%) were called active. 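Calls also used reproducibility and a similarity ranking whose scores are not deposited; many active genes show only modest elongated scores.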 Entries without a mark were called inactive. A plus sign joins genes that one reagent is predicted to hit. Not all columns of the deposit are shown. Not given: the amount of reagent, the time to read-out.

gene	amplicon	elongated score, rep 1	elongated score, rep 2
Src42A (GeneID 35524)	DRSC04915	0.05	
CG1637 (GeneID 32019)	DRSC18865	0.45	
CG1637 (GeneID 32019)	DRSC19748	-0.22	
CG1637 (GeneID 32019)	DRSC19749	1.06	
CG1637 (GeneID 32019)	DRSC29080	3.41	
Mvk + CG33672 + spt4	DRSC05356	2.34	
Mvk + CG33672 + spt4	DRSC06628	-0.53	
Klp67A + CG34456	DRSC10420	-0.27	
Sik2 (GeneID 31170)	DRSC18522	-0.41	

Targets above whose gene name starts with M or m:
gene	amplicon	elongated score, rep 1	elongated score, rep 2
Mvk + CG33672 + spt4	DRSC05356	2.34	
Mvk + CG33672 + spt4	DRSC06628	-0.53	

Next records follow:
gene	amplicon	elongated score, rep 1	elongated score, rep 2
CG8298 (GeneID 36282)	DRSC07138	-0.53	
Mkp + CG34140	DRSC08585	0.13	
Mkp + CG34140	DRSC26000	2.5	
Btk (GeneID 34132)	DRSC02008	-0.39	
Btk (GeneID 34132)	DRSC02666	0.13	
Btk (GeneID 34132)	DRSC22427	1.02	
polo (GeneID 40232)	DRSC11384	5.02 (active)	2.23
polo (GeneID 40232)	DRSC22359	4.74 (active)	
tor (GeneID 35717)	DRSC07707	-0.53	
Pi3K59F (GeneID 37733)	DRSC04640	1.69	
Pi3K59F (GeneID 37733)	DRSC28890	2.4	
CycG (GeneID 43724)	DRSC14324	0.53	1.97
CycG (GeneID 43724)	DRSC23345	0.66	
ball (GeneID 43228)	DRSC14145	0	
ball (GeneID 43228)	DRSC26607	1.11	
cdi (GeneID 42289)	DRSC16922	-0.24	
cdi (GeneID 42289)	DRSC28376	-0.33	
Ror (GeneID 34367)	DRSC03414	-0.39	
